Test results from patent publication US7358040B2, “MRE 11: modulation of cellular proliferation” (Rigel Pharmaceuticals, Incorporated, priority 2001, dated 2008).
No constants are given. Whether binding was seen depends on the method and setting. Some binding calls cover weakened binding; strength is not graded here.

Sequences of proteins named here, by UniProt entry; tags and fusion partners are left off.
UniProt P12004: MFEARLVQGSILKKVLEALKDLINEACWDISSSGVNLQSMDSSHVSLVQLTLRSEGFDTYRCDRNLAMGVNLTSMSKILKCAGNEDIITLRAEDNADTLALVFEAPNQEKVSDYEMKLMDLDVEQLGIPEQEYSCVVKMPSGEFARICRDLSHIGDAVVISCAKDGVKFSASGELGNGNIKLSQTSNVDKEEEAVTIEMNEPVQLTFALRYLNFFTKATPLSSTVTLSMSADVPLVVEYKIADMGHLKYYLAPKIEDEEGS
UniProt O60934: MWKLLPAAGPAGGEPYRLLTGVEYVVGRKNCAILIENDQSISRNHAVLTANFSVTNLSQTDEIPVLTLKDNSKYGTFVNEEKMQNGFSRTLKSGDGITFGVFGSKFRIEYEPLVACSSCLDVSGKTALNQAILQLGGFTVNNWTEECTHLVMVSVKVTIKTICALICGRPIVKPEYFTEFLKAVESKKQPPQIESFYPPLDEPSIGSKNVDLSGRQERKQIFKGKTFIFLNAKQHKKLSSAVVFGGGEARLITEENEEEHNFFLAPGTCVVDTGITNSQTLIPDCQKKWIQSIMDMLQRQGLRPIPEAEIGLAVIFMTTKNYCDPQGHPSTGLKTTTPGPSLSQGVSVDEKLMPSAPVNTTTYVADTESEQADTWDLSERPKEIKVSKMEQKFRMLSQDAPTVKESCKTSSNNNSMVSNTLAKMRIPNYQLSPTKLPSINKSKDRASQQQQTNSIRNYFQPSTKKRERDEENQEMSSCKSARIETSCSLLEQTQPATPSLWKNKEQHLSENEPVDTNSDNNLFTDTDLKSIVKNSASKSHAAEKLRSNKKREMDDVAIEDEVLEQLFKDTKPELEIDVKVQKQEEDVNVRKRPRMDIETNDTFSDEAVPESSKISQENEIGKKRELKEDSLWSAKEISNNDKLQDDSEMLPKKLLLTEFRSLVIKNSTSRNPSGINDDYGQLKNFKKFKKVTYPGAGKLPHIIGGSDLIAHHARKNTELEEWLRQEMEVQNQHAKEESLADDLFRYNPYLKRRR

Biological target: PCNA (UniProt P12004)
Experiment: yeast two hybrid assay, PCNA as bait

## NBS1 (from UniProt O60934 1-754)
  binding: binds
